PMC7819943, “Rice protein-binding microarrays: a tool to detect cis-acting elements near promoter regions in rice”
Some of the results follow.

The chains behind the UniProt entries cited, without tags or fusion partners.
UniProt Q0JBA9, entry or part of it: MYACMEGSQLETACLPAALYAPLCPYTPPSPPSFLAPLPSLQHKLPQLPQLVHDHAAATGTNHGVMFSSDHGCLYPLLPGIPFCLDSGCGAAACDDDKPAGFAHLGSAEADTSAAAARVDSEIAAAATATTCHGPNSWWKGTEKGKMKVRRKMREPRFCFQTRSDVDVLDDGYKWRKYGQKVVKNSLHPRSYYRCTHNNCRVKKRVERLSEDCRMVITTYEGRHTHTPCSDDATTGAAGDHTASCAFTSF

These sequences were tested against OsWRKY34 (Oryza sativa, UniProt Q0JBA9 1-250) (assay: protein-binding microarray (RPBM); PBS, 2% BSA, 51.3 ng/ul salmon testes DNA, 50 uM zinc acetate, 200 nM TF, 25 C, 1 h; high values mean tight binding). Details: protein: recombinant; tags: N-terminal polyhistidine and DsRed monomer fusion (pET32a); label: CyDye5-dUTP incorporated in the synthesized complementary strand; 3' TTTTT single-stranded linker to array surface; dsDNA, one strand shown.
In short: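 Transcription factors were each fused at the N-terminus to a polyhistidine tag plus DsRed and expressed in E. coli BL21-CodonPlus before Ni–NTA purification. Binding to a double-stranded custom Agilent array was carried out with 200 nM protein at 25 °C for 1 h in PBS, 2% BSA, salmon testes DNA and 50 µM zinc acetate. The binding signal is per-feature fluorescence intensity, in arbitrary units, on an Axon 4000B scanner.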
For “TCGCGGTTGCTTCCTTGCTGTTGAACATTTTTTTTTCTCTCGGAGTCACCTAGTGCAG”, the binding signal was 9220 fluorescence intensity (a.u.).
“CCAGCCCACTGATTCCTCACCGAATTTTTTCATTTTTTTTCGGAGTCACCTAGTGCAG” was tested, and the binding signal was 9700 fluorescence intensity (a.u.).
In the case of “CTTCAGAGAGGAGCAAAGCGTTGACTTTCATTGGAGACAACGGAGTCACCTAGTGCAG”, the binding signal is reported as 16000 fluorescence intensity (a.u.).
In the case of “CCTTCCTCTTCGCACACCTCCACCGACCGCCGCCGATCGTCGGAGTCACCTAGTGCAG”, the binding signal is reported as 8580 fluorescence intensity (a.u.).
“GCTCGCTCATTTTCACACCCAAGCGGCCAAGCCCAACTTACGGAGTCACCTAGTGCAG” was tested, and the binding signal was 8810 fluorescence intensity (a.u.).
With “GTGCTCTGCTCCAAGTTTTGTTCTGAGGTATACCTATGTACGGAGTCACCTAGTGCAG” the binding signal was 8120 fluorescence intensity (a.u.).
For “ATCTTCTTCAACAGTTGCACTTCATTCGTCGCTTACTCCTCGGAGTCACCTAGTGCAG”, the binding signal was 13500 fluorescence intensity (a.u.).
For “TTTTTATTTTTATTTCATTTTTTGATATTTTTTTCACACTCGGAGTCACCTAGTGCAG”, the binding signal was 9820 fluorescence intensity (a.u.).
“CAGCCCTAGCGTTCTCCTCCTACCCCGTCTCCGGACTCCGCGGAGTCACCTAGTGCAG” was tested, and the binding signal was 9370 fluorescence intensity (a.u.).
With “CCTCTTTTCTCTCTCTTCTTCTTTGTAAAGCATCTTTGAACGGAGTCACCTAGTGCAG” the binding signal was 10600 fluorescence intensity (a.u.).
In the case of “GTCGTCCAATGGCATGCCTCGCCCTGATTTTTATCGGGCCCGGAGTCACCTAGTGCAG”, the binding signal is reported as 12700 fluorescence intensity (a.u.).
“ACTTTTTAATATCTACACTAAATTTTTAGTACTTATCATACGGAGTCACCTAGTGCAG” was tested, and the binding signal was 8210 fluorescence intensity (a.u.).
With “GCACCGTACCGTCATGCCGTTAGTCTCGAGCTTTCTTCGTCGGAGTCACCTAGTGCAG” the binding signal was 9740 fluorescence intensity (a.u.).
For “CGACCCGTTTCCTTCCAACACAAGGCACCTCCACGACGATCGGAGTCACCTAGTGCAG”, the binding signal was 8090 fluorescence intensity (a.u.).
In the case of “GGGCGCATGATTCGATCCCTTGTTGTTTGCTGTTGTTGCCCGGAGTCACCTAGTGCAG”, the binding signal is reported as 15300 fluorescence intensity (a.u.).
In the case of “TCTCATCGACCGCCCACTTCTTCATTCTTCACCCACCGGACGGAGTCACCTAGTGCAG”, the binding signal is reported as 10900 fluorescence intensity (a.u.).
“ACGCACTCGTCTGACTTTTTTCCCGGGATTTGCTGAGGAACGGAGTCACCTAGTGCAG” was tested, and the binding signal was 9060 fluorescence intensity (a.u.).
With “CTTTTTTTCTCTTTCTTCAACTTTCTTTCGTCTCCCTTCTCGGAGTCACCTAGTGCAG” the binding signal was 11500 fluorescence intensity (a.u.).
With “TGGGGATGCGGGGTGGCGCGGGAGGAGGGAGAGGACGGAGCGGAGTCACCTAGTGCAG” the binding signal was 8670 fluorescence intensity (a.u.).
With “ATTGTCCATCCCATCCCATCTCAATCCTTTCTACCAAACACGGAGTCACCTAGTGCAG” the binding signal was 9750 fluorescence intensity (a.u.).
For “CCAACCATTAGACCTCATTTGTTGTATTTTTTTTCTTTGGCGGAGTCACCTAGTGCAG”, the binding signal was 9300 fluorescence intensity (a.u.).
“TAATTGCATTCCTATCTTCATCTGTTTCATTGGCACATTGCGGAGTCACCTAGTGCAG” was tested, and the binding signal was 8620 fluorescence intensity (a.u.).
With “CGTCGCATCCCGCCCAAATTTGGCAGCTCTTCATCTCACCCGGAGTCACCTAGTGCAG” the binding signal was 9690 fluorescence intensity (a.u.).
For “GTCTTACCCTTGCTCAATTGATTCTTTCTACAGATGGCACCGGAGTCACCTAGTGCAG”, the binding signal was 10900 fluorescence intensity (a.u.).
“GATGCAGCATCTTGTTTCTTCATCTGCGGTTGACTAGGATCGGAGTCACCTAGTGCAG” was tested, and the binding signal was 8420 fluorescence intensity (a.u.).
For “AATGGGTTGTTGGGCCTTGACGCGCGCGGTGCGGCCCATTCGGAGTCACCTAGTGCAG”, the binding signal was 8470 fluorescence intensity (a.u.).
“AATGTCAAATTTCAAGTGATTTATGGGGTGGTTTTTACAACGGAGTCACCTAGTGCAG” was tested, and the binding signal was 10700 fluorescence intensity (a.u.).
For “CGCCGTTTCTTCTGTAGTCGATTCCATCACACTTTTCGATCGGAGTCACCTAGTGCAG”, the binding signal was 8590 fluorescence intensity (a.u.).
For “TCTGCTTCCAAGGCCGCTGTTGTGAAGACCCTGGATGACTCGGAGTCACCTAGTGCAG”, the binding signal was 10100 fluorescence intensity (a.u.).
In the case of “CATTGAATTGGATTCGTCGTTCGATCGTTGACCACCGACACGGAGTCACCTAGTGCAG”, the binding signal is reported as 12500 fluorescence intensity (a.u.).
In the case of “GCTTGTTTATCTTCTTCATCTTAAACAATGTTGGTTTTCTCGGAGTCACCTAGTGCAG”, the binding signal is reported as 10300 fluorescence intensity (a.u.).
In the case of “CTCTCTCTCTCCCTCTCTCTCGGGCGCCACCGCGCATGGCCGGAGTCACCTAGTGCAG”, the binding signal is reported as 9030 fluorescence intensity (a.u.).
With “GTCATACTCTTGCCCTGTTAAATACAATAGTTTTTCTGCACGGAGTCACCTAGTGCAG” the binding signal was 9310 fluorescence intensity (a.u.).
“AAGTCTGAAGACGTACTCTTTTCTCTGCGCGCTAGCTGCTCGGAGTCACCTAGTGCAG” was tested, and the binding signal was 8040 fluorescence intensity (a.u.).
With “GCACAAGGTCCAGTTTGAGTTCGTTTGCAGTTCTACCTTTCGGAGTCACCTAGTGCAG” the binding signal was 9080 fluorescence intensity (a.u.).
With “TTCCTTCAAGCACAAAGCCATTGATATTCTTTATATGATTCGGAGTCACCTAGTGCAG” the binding signal was 8060 fluorescence intensity (a.u.).
In the case of “ACACACGCCGGACTCTCCCCTTCTCTCTGTCTCGCTCCTTCGGAGTCACCTAGTGCAG”, the binding signal is reported as 8600 fluorescence intensity (a.u.).
“CCTGATCCATTTGCTGCCCTCTTGTTGCCTCTTTCTGGGGCGGAGTCACCTAGTGCAG” was tested, and the binding signal was 11300 fluorescence intensity (a.u.).
With “AATCCCCAGCCCTAGCCACCACCGCCGGTCTCTCCTCCCTCGGAGTCACCTAGTGCAG” the binding signal was 8180 fluorescence intensity (a.u.).
With “TATATCTATGCGCCTCTTGTTGTGTCATATCGACTGATATCGGAGTCACCTAGTGCAG” the binding signal was 10300 fluorescence intensity (a.u.).
“CACAACCACCAGCTTTAAAAGAAGGGGCAAATGGGGAGGGCGGAGTCACCTAGTGCAG” was tested, and the binding signal was 8670 fluorescence intensity (a.u.).
For “TTGCAGCTTGGTCATGCAGGCTTCTTCACCAATTGTACTACGGAGTCACCTAGTGCAG”, the binding signal was 8990 fluorescence intensity (a.u.).
“TATCACTCCTATTCGCGATATCGGCTGCCACTGAAATTTTCGGAGTCACCTAGTGCAG” was tested, and the binding signal was 12900 fluorescence intensity (a.u.).
“CCGCCGTTCACCACATCCTGCCCACCCGCAACCCGCGCCGCGGAGTCACCTAGTGCAG” was tested, and the binding signal was 10100 fluorescence intensity (a.u.).
With “AACAATGGGTTATTTTTCATCTGTCATGTCTTACGGTTATCGGAGTCACCTAGTGCAG” the binding signal was 11400 fluorescence intensity (a.u.).
“TTAAATATGGATAGTTTGTATGTGTTTTGTTTATATATATCGGAGTCACCTAGTGCAG” was tested, and the binding signal was 9620 fluorescence intensity (a.u.).
“ACTACTATTCGTTATATAGGCTACATGCCATTGAAAATTTCGGAGTCACCTAGTGCAG” was tested, and the binding signal was 8120 fluorescence intensity (a.u.).
“CCAGGGAATTTAACCGTGCCCACACCCATCTGTTCCCTTCCGGAGTCACCTAGTGCAG” was tested, and the binding signal was 8260 fluorescence intensity (a.u.).
With “TTCCTGTAGACTATATTCATGGTGAATTAACCTTTCTTTCCGGAGTCACCTAGTGCAG” the binding signal was 9110 fluorescence intensity (a.u.).
“TATGTGCCTGTATTGGGCTAGATCATGATGGTATATTCTACGGAGTCACCTAGTGCAG” was tested, and the binding signal was 10400 fluorescence intensity (a.u.).
With “ACCTTCGAATCCAGCACACACCAACCACGTCCCCGACCTCCGGAGTCACCTAGTGCAG” the binding signal was 8030 fluorescence intensity (a.u.).
In the case of “TACACAACCCAACAACCGTCCATCCACTCGTTCAGGCGCTCGGAGTCACCTAGTGCAG”, the binding signal is reported as 10400 fluorescence intensity (a.u.).
In the case of “AAATCTCGTGTCTTCTGTAATTGATCTGTTGTTTTTTATCCGGAGTCACCTAGTGCAG”, the binding signal is reported as 9900 fluorescence intensity (a.u.).
In the case of “CTTTGCACGAAAATTGTCGAGTGATTTTTACAATTTCAACCGGAGTCACCTAGTGCAG”, the binding signal is reported as 8350 fluorescence intensity (a.u.).
